PubChem BioAssay AID686938, Drosophila RNAi Screening Center – 2013
The deposit covers about 23,000 reagents; this is an unselected part of those that have a named target and a result. Of all reagents, 75 (0.33%) were called active. 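Raw plate signals without normalisation; calls rest on plate z-scores that were not deposited; ratio present for only 364 wells.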 Entries without a mark were called inactive. The record does not give: the dose of the treatment.

Purpose: 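Knock-downs reducing store-operated calcium influx in Drosophila cells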 (primary screen)
System: Drosophila S2R+ cells
Reagents: long dsRNA against Drosophila genes, about 0.25 µg dsRNA per well, roughly 10,000 cells
Duration: 5 days of knock-down before the calcium assay
Challenge: thapsigargin (SERCA pump blocker) to empty calcium stores; entry signal taken 4 min after adding it
Detection: 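Per-well fluo-4 fluorescence in two replicates, unnormalised, measured in resting cells and 4 min after store depletion by the SERCA blocker thapsigargin; ratio of the two present in few wells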
Reading the numbers: calcium entry signal: higher = stronger calcium signal after store depletion; resting calcium signal: higher = higher resting calcium signal
Units: calcium entry signal in fluorescence units; resting calcium signal in fluorescence units
Rule for the call: 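Hit if the duplicate-averaged plate z-score for entry over resting signal is under −3; wells with weak total dye signal (Fmax z < −2) or more than 5 off-targets removed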
Calls: active = strongly reduced calcium entry; inactive = no strong reduction

{"target":"Arl5","DRSC id":"DRSC10785","calcium entry signal, replicate 1":3.43e7,"calcium entry signal, replicate 2":2.82e7,"resting calcium signal, replicate 1":2.41e7,"resting calcium signal, replicate 2":1.14e7}
{"target":"CG9760","DRSC id":"DRSC11101","calcium entry signal, replicate 1":3.21e7,"calcium entry signal, replicate 2":3.63e7,"resting calcium signal, replicate 1":1.73e7,"resting calcium signal, replicate 2":1.88e7}
{"target":"Pde8","DRSC id":"DRSC04503","calcium entry signal, replicate 1":4.20e7,"resting calcium signal, replicate 1":2.22e7}
{"target":"Sec61alpha","DRSC id":"DRSC03256","calcium entry signal, replicate 1":"5.10e7 (active)","resting calcium signal, replicate 1":3.55e7}
{"target":"CG14856","DRSC id":"DRSC14980","calcium entry signal, replicate 1":3.04e7,"calcium entry signal, replicate 2":5.65e7,"resting calcium signal, replicate 1":1.57e7,"resting calcium signal, replicate 2":5.95e7}
{"target":"mRpS14","DRSC id":"DRSC19444","calcium entry signal, replicate 1":3.86e7,"calcium entry signal, replicate 2":4.67e7,"resting calcium signal, replicate 1":1.96e7,"resting calcium signal, replicate 2":2.04e7}
{"target":"CG30151","DRSC id":"DRSC05888","calcium entry signal, replicate 1":2.11e7,"calcium entry signal, replicate 2":3.93e7,"resting calcium signal, replicate 1":1.03e7,"resting calcium signal, replicate 2":1.92e7}
{"target":"Tsf1","DRSC id":"DRSC20296","calcium entry signal, replicate 1":4.63e7,"calcium entry signal, replicate 2":3.18e7,"resting calcium signal, replicate 1":2.21e7,"resting calcium signal, replicate 2":1.37e7}
{"target":"mRpL28","DRSC id":"DRSC02724","calcium entry signal, replicate 1":3.71e7,"calcium entry signal, replicate 2":3.91e7,"resting calcium signal, replicate 1":1.65e7,"resting calcium signal, replicate 2":1.52e7}
{"target":"lncRNA:CR32553","DRSC id":"DRSC19229","calcium entry signal, replicate 1":3.65e7,"calcium entry signal, replicate 2":4.05e7,"resting calcium signal, replicate 1":1.78e7,"resting calcium signal, replicate 2":1.96e7}
{"target":"CG32679","DRSC id":"DRSC17644","calcium entry signal, replicate 1":3.52e7,"calcium entry signal, replicate 2":4.12e7,"resting calcium signal, replicate 1":1.70e7,"resting calcium signal, replicate 2":1.92e7}
{"target":"Pkc53E","DRSC id":"DRSC05636","calcium entry signal, replicate 1":2.98e7,"calcium entry signal, replicate 2":3.83e7,"resting calcium signal, replicate 1":1.39e7,"resting calcium signal, replicate 2":1.95e7}
{"target":"Pkc53E","DRSC id":"DRSC07510","calcium entry signal, replicate 1":3.79e7,"calcium entry signal, replicate 2":3.68e7,"resting calcium signal, replicate 1":1.78e7,"resting calcium signal, replicate 2":1.88e7}
{"target":"Obp19a","DRSC id":"DRSC20487","calcium entry signal, replicate 1":5.04e7,"calcium entry signal, replicate 2":4.91e7,"resting calcium signal, replicate 1":2.30e7,"resting calcium signal, replicate 2":1.90e7}
